# Assay results published in PubChem BioAssay AID342 (DTP/NCI, 2004).
# The list does not hold the whole screen: it is rich in T/C values a quarter to a half above the control, in often repeated tests (any T/C) and in doses without a T/C. Further doses and runs are listed elsewhere. T/C: endpoint of the treated group in % of that of the vehicle group. Schedule codes are those of the source, taken here to give the interval after Q, in days (D) or hours (H), and the number of doses after X. Some T/C values are followed by the survivors on the day toxicity was checked, most often the fifth; where none is given, no animal had died by that day. Some entries hold several experiments; the values are given in rising order. Some doses have a count of surviving animals in place of a T/C: the source holds a T/C of zero for them, seemingly a mark for toxic or unscored doses. Counts of survivors are from the toxicity check (mostly the fifth day) where no day follows; animals may have died later. Some schedule codes hold Z or #, which are not explained here. Numbered stars: 1 amine (or outer) side, 2 acyl side, 3 side chain; on linkers, the order of the positions; unused ones are H or OH. Bridge positions count the residues as written; N and C are the ends. Square brackets hold non-standard residues; d marks the D form. Peptide text beside a SMILES is read from it. * marks the point of attachment. X1 = CC(C)C(C)C(C(=O)[*:2])N(C)[*:1]; Picolinoyl(3-OH) = O=C(c1ncccc1O)*; NMePhg = CN[CH](C(=O)O)c1ccccc1; Hyp = O=C(O)[CH]1C[CH](O)CN1; Sar = CNCC(=O)O
# Test system: Swiss mice, Sarcoma 180 sc, mean tumor weight T/C
# Assay: NCI In Vivo Anticancer Drug Screen. Data for tumor model Sarcoma 180 (subcutaneous) in Swiss mice
# Settings: T/C endpoint: mean tumor weight, higher T/C = larger tumour; for T/C: evaluated on day 8
# Outline: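 Readout is the ratio of treated-group measurement to vehicle-control measurement (T/C), based on survival or tumor size in mice carrying transplanted tumors.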
# [1] = dose: 50.0 mg/kg/injection, schedule: Q01DX007 (ip), vehicle: carboxymethylcellulose (CMC)
# [2] = dose: 150.0 mg/kg/injection, schedule: Q01DX007 (ip), vehicle: carboxymethylcellulose (CMC)
compound,measurement,setting,value
CNC(C)C(O)c1ccccc1 (centres undefined),survivor count,"dose: 300.0 mg/kg/injection, schedule: Q01DX007 (ip), vehicle: saline",2 of 6
same,survivor count,"dose: 450.0 mg/kg/injection, schedule: Q01DX007 (ip), vehicle: saline",0 of 6
CCSc1nc(Cl)cc(Sc2nc(N)nc3nc[nH]c23)n1,T/C,"dose: 4.5 mg/kg/injection, schedule: Q01DX007 (ip), vehicle: other",125 % of control
same,survivor count,"dose: 144.0 mg/kg/injection, schedule: Q01DX007 (ip), vehicle: other",3 of 6
same,survivor count,"dose: 288.0 mg/kg/injection, schedule: Q01DX007 (ip), vehicle: other",1 of 6
same,survivor count,"dose: 575.0 mg/kg/injection, schedule: Q01DX007 (ip), vehicle: methylcellulose (MC)",3 of 6
CC(NC(=O)C1(N)CCCC1)C(=O)O (centres undefined),survivor count,[1],2 of 6
same,survivor count,[2],3 of 6
same,survivor count,"dose: 500.0 mg/kg/injection, schedule: Q01DX007 (ip), vehicle: steroid suspending solution",2 of 6
same,survivor count,"dose: 750.0 mg/kg/injection, schedule: Q01DX007 (ip), vehicle: steroid suspending solution",1 of 6
CC(=O)OCC(=O)[C@@]1(O)CC[C@H]2[C@@H]3C[C@H](C)C4=CC(=O)C=C[C@]4(C)[C@H]3[C@@H](O)C[C@@]21C,survivor count,"dose: 40.0 mg/kg/injection, schedule: Q01DX007 (sc), vehicle: steroid suspending solution",3 of 6
same,survivor count,"dose: 150.0 mg/kg/injection, schedule: Q01DX007 (sc), vehicle: steroid suspending solution",2 of 6
O=c1[nH]cc(C(F)(F)F)c(=O)[nH]1,survivor count,"dose: 400.0 mg/kg/injection, schedule: Q01DX007 (ip), vehicle: saline",3 of 6
same,survivor count,"dose: 500.0 mg/kg/injection, schedule: Q01DX007 (ip), vehicle: saline",2 of 6
CN(/N=N/N(C)c1ccccc1)c1ccccc1,survivor count,"dose: 250.0 mg/kg/injection, schedule: Q01DX007 (ip), vehicle: carboxymethylcellulose (CMC)",3 of 6
same,survivor count,"dose: 500.0 mg/kg/injection, schedule: Q01DX007 (ip), vehicle: carboxymethylcellulose (CMC)",1 of 6
same,survivor count,"dose: 1000.0 mg/kg/injection, schedule: Q01DX007 (ip), vehicle: carboxymethylcellulose (CMC)",3 of 6
same,survivor count,"dose: 2000.0 mg/kg/injection, schedule: Q01DX007 (ip), vehicle: carboxymethylcellulose (CMC)",0 of 6
CC1(C)O[C@@H]2C[C@H]3[C@@H]4CCC5=CC(=O)C=C[C@]5(C)[C@@]4(F)[C@@H](O)C[C@]3(C)[C@]2(C(=O)CO)O1,survivor count,"dose: 3.75 mg/kg/injection, schedule: Q#A X014 (sc), vehicle: steroid suspending solution",1 of 8
CCSCCC(N)C(=O)O (centres undefined),survivor count,"dose: 172.8 mg/kg/injection, schedule: Q#A X014 (ip), vehicle: carboxymethylcellulose (CMC)",6 of 10
same,survivor count,"dose: 216.0 mg/kg/injection, schedule: Q#A X014 (ip), vehicle: carboxymethylcellulose (CMC)",6 of 10
same,survivor count,"dose: 288.0 mg/kg/injection, schedule: Q#A X014 (ip), vehicle: carboxymethylcellulose (CMC)",1 of 10
same,survivor count,"dose: 432.0 mg/kg/injection, schedule: Q#A X014 (ip), vehicle: carboxymethylcellulose (CMC)",2 of 10
same,survivor count,"dose: 864.0 mg/kg/injection, schedule: Q01DX007 (ip), vehicle: carboxymethylcellulose (CMC)",5 of 10
CC(C)CC1NC(=O)C(NC(=O)c2ncccc2O)C(C)OC(=O)C(c2ccccc2)N(C)C(=O)C(C)NC(=O)C(C(C)C(C)C)N(C)C(=O)CN(C)C(=O)C2CC(O)CN2C1=O (centres undefined) ({Picolinoyl(3-OH)}-TL[Hyp][Sar][X1]A[NMePhg]; ester 1-C; configuration not given here),T/C,"dose: 12.5 mg/kg/injection, schedule: Q01DX007 (ip), vehicle: carboxymethylcellulose (CMC)",139 % of control
same,T/C,[2],125 % of control
C[C@]12CC[C@H](OC3OC(CO)C(O)C(O)C3O)C[C@H]1CC[C@@H]1[C@@H]2CC[C@]2(C)[C@@H](C3=CCOC3=O)CC[C@]12O (some centres undefined),survivor count,"dose: 1.0 mg/kg/injection, schedule: Q01DX007 (ip), vehicle: carboxymethylcellulose (CMC)",3 of 6
same,survivor count,"dose: 2.0 mg/kg/injection, schedule: Q01DX007 (ip), vehicle: carboxymethylcellulose (CMC)",0 of 6
same,survivor count,"dose: 2.0 mg/kg/injection, schedule: Q01DX007 (ip), vehicle: saline",3 of 6
same,survivor count,"dose: 2.0 mg/kg/injection, schedule: Q01DX007 (ip), vehicle: water",3 of 6
same,survivor count,"dose: 3.0 mg/kg/injection, schedule: Q03DX003 (ip), vehicle: carboxymethylcellulose (CMC)",3 of 6
same,survivor count,"dose: 3.8 mg/kg/injection, schedule: Q01DX007 (ip), vehicle: saline",2 of 7
same,survivor count,"dose: 6.0 mg/kg/injection, schedule: Q03DX003 (ip), vehicle: carboxymethylcellulose (CMC)",0 of 6 and 1 of 6
same,T/C,"dose: 6.8 mg/kg/injection, schedule: Q01DX007 (oral), vehicle: carboxymethylcellulose (CMC)",147 % of control [4 of 6 alive]
same,T/C,"dose: 24.0 mg/kg/injection, schedule: Q01DX007 (oral), vehicle: carboxymethylcellulose (CMC)",149 % of control
same,survivor count,"dose: 2000.0 micrograms/kg/injection, schedule: Q01DX007 (ip), vehicle: carboxymethylcellulose (CMC)",0 of 6
C/C=C1\CN(C)[C@H]2Cc3c([nH]c4ccccc34)[C@@H](c3cc4[nH]c5c(c4cc3OC)CCN3C[C@H]4C[C@H](CC)[C@H]3[C@@]5(C(=O)OC)C4)C[C@H]1C2C(=O)OC (some centres undefined),T/C,"dose: 27.0 mg/kg/injection, schedule: Q01DX007 (ip), vehicle: water","38 [5 of 6 alive], 46, 87, 116 % of control"
same,T/C,"dose: 40.0 mg/kg/injection, schedule: Q01DX007 (ip), vehicle: water","21, 40, 64, 68 % of control [5 of 6 alive]"
same,survivor count,"dose: 90.0 mg/kg/injection, schedule: Q01DX007 (ip), vehicle: water",1 of 6
CCCOC(=O)C1(N)CCCC1,survivor count,"dose: 336.0 mg/kg/injection, schedule: Q01DX007 (ip), vehicle: saline",2 of 6
[N-]=[N+]=NC1(C(=O)O)CCCC1,T/C,[2],141 % of control
O=C(NCCCCCCCCCCNC(=O)N1CC1)N1CC1,survivor count,"dose: 6.0 mg/kg/injection, schedule: Q01DX007 (ip), vehicle: carboxymethylcellulose (CMC)",3 of 6
CCC1=C(c2cc(Cl)c3ccccc3c2OCC(=O)O)OC(CC)(C(=O)c2cc(Cl)c3ccccc3c2OCC(=O)O)CC1 (centres undefined),survivor count,"dose: 18.75 mg/kg/injection, schedule: Q01DX007 (ip), vehicle: other",0 of 6
same,survivor count,"dose: 25.0 mg/kg/injection, schedule: Q01DX007 (ip), vehicle: other",0 of 6
same,survivor count,"dose: 37.5 mg/kg/injection, schedule: Q01DX007 (ip), vehicle: other",0 of 6
same,survivor count,"dose: 50.0 mg/kg/injection, schedule: Q01DX007 (ip), vehicle: other",0 of 6
same,survivor count,"dose: 75.0 mg/kg/injection, schedule: Q01DX007 (ip), vehicle: other",0 of 7
same,survivor count,"dose: 111.0 mg/kg/injection, schedule: Q01DX007 (ip), vehicle: other",0 of 7
same,survivor count,"dose: 166.0 mg/kg/injection, schedule: Q01DX007 (ip), vehicle: other",0 of 7 and 3 of 6
same,survivor count,"dose: 250.0 mg/kg/injection, schedule: Q01DX007 (ip), vehicle: other",0 of 6 and 0 of 7
CC1CN1C(=O)Nc1cccc2c(NC(=O)N3CC3C)cccc12 (centres undefined),survivor count,"dose: 31.5 mg/kg/injection, schedule: Q#A X014 (ip), vehicle: methylcellulose (MC)",3 of 6
same,survivor count,"dose: 53.0 mg/kg/injection, schedule: Q01DX007 (ip), vehicle: carboxymethylcellulose (CMC)",3 of 6
same,survivor count,"dose: 80.0 mg/kg/injection, schedule: Q01DX007 (ip), vehicle: carboxymethylcellulose (CMC)",0 of 6
same,survivor count,"dose: 120.0 mg/kg/injection, schedule: Q01DX007 (ip), vehicle: carboxymethylcellulose (CMC)",0 of 6
same,survivor count,"dose: 120.0 mg/kg/injection, schedule: Q01DX007 (ip), vehicle: saline",1 of 7
Cc1ncc([N+](=O)[O-])n1CCCl,survivor count,"dose: 125.0 mg/kg/injection, schedule: Q01DX007 (ip), vehicle: saline",3 of 6
CCCCCC/C=C/[N+]([O-])=NC(COC)C(C)O (centres undefined),T/C,"dose: 12.0 mg/kg/injection, schedule: Q01DX007 (ip), vehicle: carboxymethylcellulose (CMC)",131 % of control
same,survivor count,"dose: 25.0 mg/kg/injection, schedule: Q01DX007 (ip), vehicle: carboxymethylcellulose (CMC)",0 of 6
same,survivor count,[1],0 of 6
